Laboratory results: the supplement of paper PMC12819154, “High-throughput peptide-centric local stability assay extends protein–ligand identification to membrane proteins, tissues and bacteria” (Nature Structural & Molecular Biology, 2025)
The other results are listed elsewhere or left out. Small differences around the control level are noise.

Amino acid sequences for entries named in this document (tags omitted). A change or cut given only in a name is not applied to a line headed by its entry.
UniProt Q8N344: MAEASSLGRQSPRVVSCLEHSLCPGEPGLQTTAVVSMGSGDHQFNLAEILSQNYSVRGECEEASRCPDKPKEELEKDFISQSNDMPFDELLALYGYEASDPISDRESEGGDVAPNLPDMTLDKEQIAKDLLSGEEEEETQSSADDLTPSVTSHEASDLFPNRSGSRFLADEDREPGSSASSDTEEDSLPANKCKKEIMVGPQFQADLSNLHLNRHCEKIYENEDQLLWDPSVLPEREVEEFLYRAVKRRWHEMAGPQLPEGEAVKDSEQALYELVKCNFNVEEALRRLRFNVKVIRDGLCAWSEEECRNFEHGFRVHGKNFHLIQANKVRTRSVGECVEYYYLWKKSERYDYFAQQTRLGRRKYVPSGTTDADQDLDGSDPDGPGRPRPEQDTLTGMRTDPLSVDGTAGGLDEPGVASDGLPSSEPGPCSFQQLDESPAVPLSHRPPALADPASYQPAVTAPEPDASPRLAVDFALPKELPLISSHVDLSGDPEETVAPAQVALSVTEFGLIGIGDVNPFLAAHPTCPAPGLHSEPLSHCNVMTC
UniProt Q8N9Q2: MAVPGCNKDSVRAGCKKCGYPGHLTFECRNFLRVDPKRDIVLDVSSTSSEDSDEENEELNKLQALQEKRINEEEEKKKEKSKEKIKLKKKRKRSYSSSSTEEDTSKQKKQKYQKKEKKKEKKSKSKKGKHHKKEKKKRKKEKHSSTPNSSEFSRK
UniProt Q8ND04: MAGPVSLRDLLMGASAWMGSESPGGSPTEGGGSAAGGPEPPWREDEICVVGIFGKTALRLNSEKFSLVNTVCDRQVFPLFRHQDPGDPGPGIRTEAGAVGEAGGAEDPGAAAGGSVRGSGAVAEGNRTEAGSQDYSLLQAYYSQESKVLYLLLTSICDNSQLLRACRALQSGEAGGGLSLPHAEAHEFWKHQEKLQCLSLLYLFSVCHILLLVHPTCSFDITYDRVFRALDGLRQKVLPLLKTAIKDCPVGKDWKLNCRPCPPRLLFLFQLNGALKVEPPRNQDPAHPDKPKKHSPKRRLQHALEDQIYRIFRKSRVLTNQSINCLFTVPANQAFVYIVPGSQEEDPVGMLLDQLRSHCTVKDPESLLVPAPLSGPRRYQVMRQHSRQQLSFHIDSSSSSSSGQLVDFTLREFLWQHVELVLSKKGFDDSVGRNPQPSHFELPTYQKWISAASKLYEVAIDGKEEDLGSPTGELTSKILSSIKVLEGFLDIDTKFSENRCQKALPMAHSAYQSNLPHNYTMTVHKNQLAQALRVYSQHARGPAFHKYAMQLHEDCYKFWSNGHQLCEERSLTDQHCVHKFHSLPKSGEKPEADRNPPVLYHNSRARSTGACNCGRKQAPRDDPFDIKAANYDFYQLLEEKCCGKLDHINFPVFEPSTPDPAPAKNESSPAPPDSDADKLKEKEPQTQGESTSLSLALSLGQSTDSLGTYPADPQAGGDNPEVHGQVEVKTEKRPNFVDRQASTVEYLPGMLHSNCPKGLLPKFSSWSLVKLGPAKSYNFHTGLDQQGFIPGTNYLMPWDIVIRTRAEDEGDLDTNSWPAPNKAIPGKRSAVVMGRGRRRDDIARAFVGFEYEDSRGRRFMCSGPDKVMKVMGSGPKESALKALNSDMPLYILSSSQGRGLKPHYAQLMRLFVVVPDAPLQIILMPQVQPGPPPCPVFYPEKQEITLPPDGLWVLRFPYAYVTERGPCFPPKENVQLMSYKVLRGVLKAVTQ
UniProt Q8N612: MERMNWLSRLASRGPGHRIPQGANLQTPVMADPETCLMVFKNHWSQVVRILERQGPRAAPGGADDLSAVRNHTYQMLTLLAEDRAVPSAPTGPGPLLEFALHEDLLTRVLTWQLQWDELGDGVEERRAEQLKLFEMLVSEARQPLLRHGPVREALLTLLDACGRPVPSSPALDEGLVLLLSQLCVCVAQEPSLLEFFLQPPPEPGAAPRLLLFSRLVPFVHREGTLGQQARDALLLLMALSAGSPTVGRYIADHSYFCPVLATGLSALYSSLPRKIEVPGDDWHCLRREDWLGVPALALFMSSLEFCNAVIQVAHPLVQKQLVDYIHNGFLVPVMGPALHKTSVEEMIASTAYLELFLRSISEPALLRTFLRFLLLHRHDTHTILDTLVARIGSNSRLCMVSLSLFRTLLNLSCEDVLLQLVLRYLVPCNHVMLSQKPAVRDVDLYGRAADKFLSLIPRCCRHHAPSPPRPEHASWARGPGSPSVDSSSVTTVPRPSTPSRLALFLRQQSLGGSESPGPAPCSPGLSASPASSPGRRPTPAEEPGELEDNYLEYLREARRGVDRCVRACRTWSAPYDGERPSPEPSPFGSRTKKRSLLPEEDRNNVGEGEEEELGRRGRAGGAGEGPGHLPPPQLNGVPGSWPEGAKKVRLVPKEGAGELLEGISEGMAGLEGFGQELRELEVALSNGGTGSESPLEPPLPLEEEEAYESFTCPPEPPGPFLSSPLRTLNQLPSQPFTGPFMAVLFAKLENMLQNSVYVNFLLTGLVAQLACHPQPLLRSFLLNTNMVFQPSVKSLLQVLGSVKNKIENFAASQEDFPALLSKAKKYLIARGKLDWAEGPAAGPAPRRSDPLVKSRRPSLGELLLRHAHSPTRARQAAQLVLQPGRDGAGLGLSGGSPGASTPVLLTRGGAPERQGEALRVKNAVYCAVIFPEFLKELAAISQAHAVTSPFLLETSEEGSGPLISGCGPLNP
UniProt Q8NDI1: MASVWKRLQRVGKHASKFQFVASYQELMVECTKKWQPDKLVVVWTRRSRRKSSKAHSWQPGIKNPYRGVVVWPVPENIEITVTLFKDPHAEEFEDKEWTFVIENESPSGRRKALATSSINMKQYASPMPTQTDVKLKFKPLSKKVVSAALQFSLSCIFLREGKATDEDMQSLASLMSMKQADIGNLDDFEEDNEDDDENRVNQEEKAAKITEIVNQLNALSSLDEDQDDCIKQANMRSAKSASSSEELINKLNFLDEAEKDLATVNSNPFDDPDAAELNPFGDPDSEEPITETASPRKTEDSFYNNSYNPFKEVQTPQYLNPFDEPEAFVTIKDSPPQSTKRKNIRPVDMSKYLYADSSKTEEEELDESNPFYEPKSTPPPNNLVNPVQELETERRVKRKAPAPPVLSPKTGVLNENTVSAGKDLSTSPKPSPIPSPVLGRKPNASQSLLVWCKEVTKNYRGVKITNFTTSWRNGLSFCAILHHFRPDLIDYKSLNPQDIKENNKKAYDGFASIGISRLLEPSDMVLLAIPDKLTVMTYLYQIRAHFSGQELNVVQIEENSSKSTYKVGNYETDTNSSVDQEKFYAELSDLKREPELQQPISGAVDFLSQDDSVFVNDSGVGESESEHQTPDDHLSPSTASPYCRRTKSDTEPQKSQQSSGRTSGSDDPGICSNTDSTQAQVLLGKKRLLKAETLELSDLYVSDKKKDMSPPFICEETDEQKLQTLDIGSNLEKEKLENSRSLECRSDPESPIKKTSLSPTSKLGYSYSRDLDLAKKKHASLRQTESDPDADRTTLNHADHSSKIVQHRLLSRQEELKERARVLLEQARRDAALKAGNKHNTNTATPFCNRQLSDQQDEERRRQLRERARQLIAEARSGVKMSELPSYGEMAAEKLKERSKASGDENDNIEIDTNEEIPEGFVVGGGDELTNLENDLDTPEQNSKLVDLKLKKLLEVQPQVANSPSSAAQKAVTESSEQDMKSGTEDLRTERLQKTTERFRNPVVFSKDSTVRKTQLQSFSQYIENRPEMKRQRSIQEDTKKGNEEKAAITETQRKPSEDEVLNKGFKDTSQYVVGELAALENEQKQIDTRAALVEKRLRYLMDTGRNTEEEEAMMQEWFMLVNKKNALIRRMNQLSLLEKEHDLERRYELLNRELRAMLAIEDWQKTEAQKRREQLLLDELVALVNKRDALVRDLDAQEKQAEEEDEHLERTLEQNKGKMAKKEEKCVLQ
UniProt Q8NFV4: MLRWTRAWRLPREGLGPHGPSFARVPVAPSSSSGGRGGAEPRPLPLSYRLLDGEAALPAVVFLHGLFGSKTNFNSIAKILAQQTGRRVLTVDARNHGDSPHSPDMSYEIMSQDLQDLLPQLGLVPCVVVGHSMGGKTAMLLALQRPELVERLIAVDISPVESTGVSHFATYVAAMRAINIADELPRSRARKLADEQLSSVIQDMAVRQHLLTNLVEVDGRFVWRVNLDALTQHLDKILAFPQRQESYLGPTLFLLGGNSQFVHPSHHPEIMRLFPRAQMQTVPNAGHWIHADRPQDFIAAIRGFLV
UniProt Q8N5M1: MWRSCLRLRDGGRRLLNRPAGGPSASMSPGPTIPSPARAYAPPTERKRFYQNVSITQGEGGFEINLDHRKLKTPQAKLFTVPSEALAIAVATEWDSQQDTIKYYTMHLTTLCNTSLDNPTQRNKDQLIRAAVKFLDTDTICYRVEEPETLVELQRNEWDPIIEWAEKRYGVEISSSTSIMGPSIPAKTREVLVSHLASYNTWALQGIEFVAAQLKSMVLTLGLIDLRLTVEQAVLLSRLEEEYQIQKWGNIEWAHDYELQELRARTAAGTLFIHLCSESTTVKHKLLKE
UniProt Q8N1F8: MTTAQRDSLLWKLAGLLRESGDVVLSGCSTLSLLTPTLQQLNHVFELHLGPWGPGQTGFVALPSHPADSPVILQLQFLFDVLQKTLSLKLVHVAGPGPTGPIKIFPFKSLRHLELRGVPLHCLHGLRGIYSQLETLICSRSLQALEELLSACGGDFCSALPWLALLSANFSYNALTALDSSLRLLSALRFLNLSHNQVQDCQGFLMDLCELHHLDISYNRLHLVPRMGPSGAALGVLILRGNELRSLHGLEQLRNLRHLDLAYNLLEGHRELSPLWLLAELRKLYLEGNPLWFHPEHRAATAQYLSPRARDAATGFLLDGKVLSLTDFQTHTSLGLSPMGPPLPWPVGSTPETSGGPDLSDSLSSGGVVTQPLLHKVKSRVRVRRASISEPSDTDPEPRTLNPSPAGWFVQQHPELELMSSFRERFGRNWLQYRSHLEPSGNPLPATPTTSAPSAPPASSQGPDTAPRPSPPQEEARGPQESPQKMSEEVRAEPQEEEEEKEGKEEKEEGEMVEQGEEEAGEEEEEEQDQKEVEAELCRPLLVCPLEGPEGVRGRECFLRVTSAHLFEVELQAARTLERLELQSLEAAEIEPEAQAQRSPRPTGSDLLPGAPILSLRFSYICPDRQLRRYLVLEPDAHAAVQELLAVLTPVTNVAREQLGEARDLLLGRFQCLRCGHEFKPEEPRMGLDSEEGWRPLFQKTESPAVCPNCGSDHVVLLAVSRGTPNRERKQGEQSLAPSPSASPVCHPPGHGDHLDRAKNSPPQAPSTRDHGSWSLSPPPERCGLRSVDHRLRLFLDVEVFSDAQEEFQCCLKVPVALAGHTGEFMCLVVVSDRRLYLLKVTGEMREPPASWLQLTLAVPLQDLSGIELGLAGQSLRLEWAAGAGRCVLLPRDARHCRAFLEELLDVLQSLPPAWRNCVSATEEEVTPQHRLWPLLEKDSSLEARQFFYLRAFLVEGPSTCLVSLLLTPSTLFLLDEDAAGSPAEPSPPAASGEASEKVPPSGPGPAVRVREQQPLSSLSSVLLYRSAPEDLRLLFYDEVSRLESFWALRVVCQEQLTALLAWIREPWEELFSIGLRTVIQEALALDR
UniProt Q8N954: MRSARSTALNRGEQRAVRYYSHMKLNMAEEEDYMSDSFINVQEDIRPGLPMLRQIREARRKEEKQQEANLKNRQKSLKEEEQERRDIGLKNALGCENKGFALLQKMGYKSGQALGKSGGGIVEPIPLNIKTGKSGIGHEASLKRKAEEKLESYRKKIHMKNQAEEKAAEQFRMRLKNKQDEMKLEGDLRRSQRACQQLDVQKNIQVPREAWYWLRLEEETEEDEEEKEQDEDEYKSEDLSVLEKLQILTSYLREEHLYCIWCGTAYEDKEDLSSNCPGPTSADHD
UniProt Q8NEH6: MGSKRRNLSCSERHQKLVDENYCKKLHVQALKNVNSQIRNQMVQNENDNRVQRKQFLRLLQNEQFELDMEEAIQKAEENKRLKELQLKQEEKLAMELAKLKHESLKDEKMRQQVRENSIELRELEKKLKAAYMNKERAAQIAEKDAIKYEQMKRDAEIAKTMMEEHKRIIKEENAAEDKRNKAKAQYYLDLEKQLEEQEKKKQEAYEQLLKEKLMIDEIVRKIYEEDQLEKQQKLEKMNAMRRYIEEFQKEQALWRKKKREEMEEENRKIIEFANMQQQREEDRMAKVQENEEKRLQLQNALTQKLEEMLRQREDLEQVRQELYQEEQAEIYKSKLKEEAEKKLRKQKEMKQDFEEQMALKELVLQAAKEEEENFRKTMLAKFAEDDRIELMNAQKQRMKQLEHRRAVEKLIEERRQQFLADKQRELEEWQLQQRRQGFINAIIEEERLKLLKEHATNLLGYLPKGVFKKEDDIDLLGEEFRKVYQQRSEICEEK

compound: Cc1nc(Nc2ncc(C(=O)Nc3c(C)cccc3Cl)s2)cc(N2CCN(CCO)CC2)n1 [dasatinib]; assay: log2 fold change of tryptic peptide abundance, ligand vs vehicle (limited proteolysis) (log2 ratio); higher = more trypsin-susceptible (destabilized); conditions: ligand concentration: 5 uM; sample: K562 cleared lysate

Target	log2 fold change
MIER2 (peptide sequence: SERYDYFAQQTR, peptide start residue: 327) (UniProt Q8N344)	0.471
SREK1IP1 (peptide sequence: HSSTPNSSEFSRK, peptide start residue: 143) (UniProt Q8N9Q2)	-0.207
UniProt Q8ND04 (peptide sequence: EFLWQHVELVLSKK, peptide start residue: 412)	-0.687
FAM160A2 (peptide sequence: SISEPALLR, peptide start residue: 360) (UniProt Q8N612)	0.439
EHBP1 (peptide sequence: LNFLDEAEK, peptide start residue: 252) (UniProt Q8NDI1)	0.541
ABHD11 (peptide sequence: TAMLLALQRPELVER, peptide start residue: 146) (UniProt Q8NFV4)	0.189
UniProt Q8N9W5 (peptide sequence: QEQLQGFNTR, peptide start residue: 420)	0.45
ATPAF2 (peptide sequence: KLKTPQAK, peptide start residue: 70) (UniProt Q8N5M1)	0.153
STK11IP (peptide sequence: FSYICPDR, peptide start residue: 618) (UniProt Q8N1F8)	-0.392
UniProt Q8N954 (peptide sequence: SLKEEEQERR, peptide start residue: 76)	0.117
UniProt Q8NEH6 (peptide sequence: QLEEQEK, peptide start residue: 194)	-0.174

Reprinted at random: two records from the list.
Target	log2 fold change
ABHD11 (peptide sequence: TAMLLALQRPELVER, peptide start residue: 146) (UniProt Q8NFV4)	0.189
UniProt Q8N9W5 (peptide sequence: QEQLQGFNTR, peptide start residue: 420)	0.45
